In patent US20250213665A1, “METHODS FOR INHIBITING TRAINED IMMUNITY WITH NANOBIOLOGIC COMPOSITIONS” (Icahn School of Medicine at Mount Sinai, priority 2017, published 2025):
At least one structure is not confirmed: it was looked up by name or label, or the drawing left a doubt.

Tests used:
[1] = Recovery and hydrolysis of the (pro-)drugs in nanobiologics; format: physicochemical
Experimental: From 10 mg/ml stock solutions in chloroform, 1-palmitoyl-2-oleoyl-sn-glycero-3-phosphocholine (POPC, 250 μL), 1-palmitoyl-2-hydroxy-sn-glycero-3-phosphocholine (PHPC, 65 μL), cholesterol (15 μL), tricaprylin (1000 μL) and (pro-)drug (65 μL), were combined in a 20 ml vial and dried under vacuum. The resulting film was redissolved in a acetonitrile:methanol mixture (95%: 5%, 3 mL total volume). Separately, a solution of ApoA-I protein in PBS (0.1 mg/ml) was prepared. Using a microfluidic set-up, both solutions were simultaneously injected into a herringbone mixer, with a flow rate of 0.75 ml/min for the lipid solution and a rate of 6 ml/min for the ApoA-I solution. The obtained solution was concentrated by centrifugal filtration using a […] Vivaspin tube at 4000 rpm to obtain a volume of 5 mL. […]
(Pro-)drug recovery and hydrolysis were determined using the following procedure: an aliquot (200 μL) of the particle solution was dried under vacuum, acetonitrile (600 μL) was added and the suspension was sonicated for 20 minutes. The suspension was centrifuged to precipitate any solids and the remaining solution was analyzed using HPLC; except for the malonate derivatives which were analyzed using SFC-MS, and Dimethylmalonate which was analyzed by GC-MS.

[2] = test system: graft-infiltrating macrophages; experiment: Myeloid cell compartment, macrophage subsets and T cells in heart allograft recipients (flow cytometry); format: in vivo, mouse; details: six days after transplantation; 5 mg/kg days 0, 2, 5

| SMILES | hydrolysis of the (pro-)drugs in the nanobiologics over time ([1]; 4° C. in PBS) | distribution of macrophage subsets (Ly-6Chi and Ly-6Clo) [2] | drug recovery in nanobiologics ([1]; microfluidic procedure, ≈35 nm nanobiologics) |
| --- | --- | --- | --- |
| CO[C@H]1C[C@@H]2CC[C@@H](C)[C@@](O)(O2)C(=O)C(=O)N2CCCC[C@H]2C(=O)O[C@H]([C@H](C)C[C@@H]2CC[C@@H](O)[C@H](OC)C2)CC(=O)[C@H](C)/C=C(\C)[C@@H](O)[C@@H](OC)C(=O)[C@H](C)C[C@H](C)/C=C/C=C/C=C/1C [rapamycin] | hydrolysis was observed | not observed | – |
| CCc1cncnc1N1CCN(Cc2nc3ccc(C(F)(F)F)cc3[nH]2)CC1 [PF-4708671] | – | – | less than 1% |
